Results deposited as PubChem BioAssay AID1224826 (NIAID, 2016).
In all, the deposit lists about 17,000 reagents; below is an unselected part. About 1,110 of all reagents (6.6%) count as active. 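Active means lowered or raised reporter signal; replicate intensities are raw and not normalised per plate.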 The numbers tell different reagents against one gene apart. No sequences are given here.

Test: 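Knock-downs that raise or lower Tnf reporter signal after endotoxin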 (primary screen)
Cell system: RAW264.7 G9 macrophages from mouse bearing reporters for p65 (GFP) and the Tnf promoter (mCherry)
Reagents: siRNA pool against mouse genes, 100 nM
Duration: 16 h of LPS stimulation, after 2 days of siRNA transfection
Conditions: bacterial lipopolysaccharide (Salmonella minnesota R595), 10 ng/ml
Read-out: 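Imaged Tnf reporter mCherry in nuclei, minus background, normalised per plate to the median and expressed as robust z-scores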
Reading the numbers: Tnf reporter robust z-score: higher = stronger Tnf promoter reporter signal after LPS; Tnf reporter intensity: higher = stronger Tnf promoter reporter signal
Active means: 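Called active when robust z-score is at most -1.3, matching the median of the Tlr4 knock-down control, or over 3; control wells and wells with under 50 cells never active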
Meaning of the calls: active = Tnf reporter clearly lowered or raised; inactive = no clear change in Tnf reporter

| target gene | reagent | Tnf reporter robust z-score | fewer than 50 cells in well | Tnf reporter intensity, replicate 1 | Tnf reporter intensity, replicate 2 | activity call |
| --- | --- | --- | --- | --- | --- | --- |
| Sema3b | 1 | -1.27 | enough cells in well | 64.7 | 50.2 | inactive |
| Padi2 (peptidyl arginine deiminase, type II) | 1 | – | fewer than 50 cells per well; well left out of calls | 98.2 | 88.5 | inactive |
| Twf2 (twinfilin actin binding protein 2) | 1 | – | fewer than 50 cells per well; well left out of calls | 180 | 146 | inactive |
| Bivm (basic, immunoglobulin-like variable motif containing) | 1 | 1.15 | enough cells in well | 158 | 222 | inactive |
| Krt20 (keratin 20) | 1 | -0.75 | enough cells in well | 121 | 114 | inactive |
| Tctn3 (tectonic family member 3) | 1 | – | fewer than 50 cells per well; well left out of calls | 193 | 61.2 | inactive |
| Grina | 1 | -1.4 | enough cells in well | 139 | 59.9 | active |
| Glrx2 (glutaredoxin 2) | 1 | -0.5 | enough cells in well | 206 | 150 | inactive |
| Slitrk4 (SLIT and NTRK-like family, member 4) | 1 | -1.07 | enough cells in well | 70.6 | 43 | inactive |
| Ceacam9 (CEA cell adhesion molecule 9) | 1 | 2.17 | enough cells in well | 243 | 362 | inactive |
| Ccl5 (C-C motif chemokine ligand 5) | 1 | -0.38 | enough cells in well | 220 | 177 | inactive |
| Mmp21 (matrix metallopeptidase 21) | 1 | 0.85 | enough cells in well | 404 | 210 | inactive |
| 1700049L16Rik (RIKEN cDNA 1700049L16 gene) | 1 | -1.01 | enough cells in well | 144 | 65.8 | inactive |
| Myoc (myocilin) | 1 | 0.41 | enough cells in well | 327 | 211 | inactive |
| Ndufaf3 (NADH:ubiquinone oxidoreductase complex assembly factor 3) | 1 | – | fewer than 50 cells per well; well left out of calls | 143 | 70.7 | inactive |
| Dab2 (disabled 2, mitogen-responsive phosphoprotein) | 1 | 1.43 | enough cells in well | 339 | 343 | inactive |
| Dab2 (disabled 2, mitogen-responsive phosphoprotein) | 2 | 0.16 | enough cells in well | 204 | 151 | inactive |
| Art2a (ADP-ribosyltransferase 2a) | 1 | 0.57 | enough cells in well | 213 | 188 | inactive |
| Neurl4 (neuralized E3 ubiquitin protein ligase 4) | 1 | -0.07 | enough cells in well | 162 | 146 | inactive |
| Rad54l2 (RAD54 like 2 (S. cerevisiae)) | 1 | 0.13 | enough cells in well | 56.3 | 96.1 | inactive |
| Fgl1 (fibrinogen-like protein 1) | 1 | 2.14 | enough cells in well | 405 | 249 | inactive |
| Cdk10 (cyclin dependent kinase 10) | 1 | 0.19 | enough cells in well | 230 | 150 | inactive |
| Kctd11 (potassium channel tetramerisation domain containing 11) | 1 | -0.26 | enough cells in well | 188 | 111 | inactive |
| Pfpl (pore forming protein-like) | 1 | 0.14 | enough cells in well | 144 | 149 | inactive |
| Ryr2 (ryanodine receptor 2, cardiac) | 1 | 0.06 | enough cells in well | 299 | 219 | inactive |
| Gpc1 (glypican 1) | 1 | – | fewer than 50 cells per well; well left out of calls | 213 | 131 | inactive |
| Rnf181 (ring finger protein 181) | 1 | 0.06 | enough cells in well | 233 | 78.4 | inactive |
| Dpep1 (dipeptidase 1) | 1 | 0.37 | enough cells in well | 241 | 251 | inactive |
| Cacng7 (calcium channel, voltage-dependent, gamma subunit 7) | 1 | -0.14 | enough cells in well | 166 | 155 | inactive |
| Sv2b (synaptic vesicle glycoprotein 2b) | 1 | 1.16 | enough cells in well | 149 | 85.7 | inactive |
| Or6c207 (olfactory receptor family 6 subfamily C member 207) | 1 | 2.09 | enough cells in well | 176 | 190 | inactive |
| Dpp7 (dipeptidylpeptidase 7) | 1 | -0.46 | enough cells in well | 162 | 95 | inactive |
| Mtfr1l (mitochondrial fission regulator 1-like) | 1 | 0.54 | enough cells in well | 292 | 64.3 | inactive |
| C530047H08Rik (RIKEN cDNA C530047H08 gene) | 1 | 1.42 | enough cells in well | 151 | 264 | inactive |
| Nagpa | 1 | 1.23 | enough cells in well | 304 | 75.5 | inactive |
| Ephx1 (epoxide hydrolase 1, microsomal) | 1 | 1.54 | enough cells in well | 353 | 345 | inactive |
| Pigs (phosphatidylinositol glycan anchor biosynthesis, class S) | 1 | -0.43 | enough cells in well | 128 | 77.9 | inactive |

3 neighbouring records from above, for reference:
| target gene | reagent | Tnf reporter robust z-score | fewer than 50 cells in well | Tnf reporter intensity, replicate 1 | Tnf reporter intensity, replicate 2 | activity call |
| --- | --- | --- | --- | --- | --- | --- |
| Rad54l2 (RAD54 like 2 (S. cerevisiae)) | 1 | 0.13 | enough cells in well | 56.3 | 96.1 | inactive |
| Fgl1 (fibrinogen-like protein 1) | 1 | 2.14 | enough cells in well | 405 | 249 | inactive |
| Cdk10 (cyclin dependent kinase 10) | 1 | 0.19 | enough cells in well | 230 | 150 | inactive |

More records:
| target gene | reagent | Tnf reporter robust z-score | fewer than 50 cells in well | Tnf reporter intensity, replicate 1 | Tnf reporter intensity, replicate 2 | activity call |
| --- | --- | --- | --- | --- | --- | --- |
| Tas2r105 (taste receptor, type 2, member 105) | 1 | 0.53 | enough cells in well | 138 | 63 | inactive |
| Gdpd3 (glycerophosphodiester phosphodiesterase domain containing 3) | 1 | -0.71 | enough cells in well | 217 | 51.7 | inactive |
| Slc25a20 | 1 | -0.21 | enough cells in well | 170 | 154 | inactive |
| Dst (dystonin) | 1 | 0.04 | enough cells in well | 187 | 118 | inactive |
| Tgfb1 (transforming growth factor, beta 1) | 1 | 0.62 | enough cells in well | 273 | 168 | inactive |
| Postn (periostin, osteoblast specific factor) | 1 | -0.17 | enough cells in well | 249 | 166 | inactive |
| Lrit2 | 1 | 0.15 | enough cells in well | 135 | 210 | inactive |
| Rps16 (ribosomal protein S16) | 1 | -0.73 | enough cells in well | 260 | 137 | inactive |
| Llph (LLP homolog, long-term synaptic facilitation (Aplysia)) | 1 | -0.57 | enough cells in well | 175 | 78.1 | inactive |
| Odc1 (ornithine decarboxylase, structural 1) | 1 | -0.46 | enough cells in well | 211 | 148 | inactive |
| Nelfe (negative elongation factor complex member E, Rdbp) | 1 | 1.93 | enough cells in well | 222 | 201 | inactive |
| Rnf113a1 (ring finger protein 113A1) | 1 | – | fewer than 50 cells per well; well left out of calls | 112 | 69.7 | inactive |
| Bcat1 (branched chain aminotransferase 1, cytosolic) | 1 | 1.72 | enough cells in well | 228 | 257 | inactive |
| Rpl15 (ribosomal protein L15) | 1 | -0.91 | enough cells in well | 96.4 | 81.2 | inactive |
| Smpx (small muscle protein, X-linked) | 1 | – | fewer than 50 cells per well; well left out of calls | 79 | 55.3 | inactive |
| Cct5 (chaperonin containing TCP1 subunit 5) | 1 | -0.35 | enough cells in well | 203 | 197 | inactive |
| Psme2 | 1 | – | fewer than 50 cells per well; well left out of calls | 12 | 139 | inactive |
| Tecr (trans-2,3-enoyl-CoA reductase) | 1 | -0.89 | enough cells in well | 152 | 129 | inactive |
| Arhgap26 (Rho GTPase activating protein 26) | 1 | 0.94 | enough cells in well | 168 | 213 | inactive |
| Trp73 (transformation related protein 73) | 1 | 0 | enough cells in well | 209 | 255 | inactive |
| Cdk12 (cyclin dependent kinase 12) | 1 | -0.56 | enough cells in well | 163 | 77.6 | inactive |
